Results published in PMC4066787.

Biological target: histone deacetylase protein HDAC1 (mouse (endogenous in R1 ESCs)), O09106
Test: affinity purification with mass spectrometry; two-step IP-iPOND in native (non-fixative) conditions: sonicated nuclear extracts (about mononucleosome size) of ESCs pulsed 10 min with EdU, immunoprecipitated with goat anti-HDAC1 antibody, eluted with competitor peptide, re-purified on streptavidin magnetic beads via biotin-EdU nascent DNA; high-resolution mass spectrometry
Conditions: remark: other sources report otherwise

- binding: binds
B1: epigenetic regulator UHRF1 protein, Q8VDF2 1-782 (protein)
chain: MWIQVRTMDGKETHTVNSLSRLTKVQELRKKIEEVFHVEPQLQRLFYRGKQMEDGHTLFDYDVRLNDTIQLLVRQSLALPLSTKERDSELSDSDSGYGVGHSESDKSSTHGEGAAEADDKTVWEDTDLGLYKVNEYVDVRDNIFGAWFEAQVVQVQKRALSEDEPCSSSAVKTSEDDIMYHVKYDDYPEHGVDIVKAKNVRARARTVIPWENLEVGQVVMANYNVDYPRKRGFWYDVEICRKRQTRTARELYGNIRLLNDSQLNNCRIMFVDEVLMIELPKERRPLIASPSQPPPALRNTGKSGPSCRFCKDDENKPCRKCACHVCGGREAPEKQLLCDECDMAFHLYCLKPPLTSVPPEPEWYCPSCRTDSSEVVQAGEKLKESKKKAKMASATSSSRRDWGKGMACVGRTTECTIVPANHFGPIPGVPVGTMWRFRVQVSESGVHRPHVAGIHGRSNDGAYSLVLAGGYEDDVDNGNYFTYTGSGGRDLSGNKRTAGQSSDQKLTNNNRALALNCHSPINEKGAEAEDWRQGKPVRVVRNMKGGKHSKYAPAEGNRYDGIYKVVKYWPERGKSGFLVWRYLLRRDDTEPEPWTREGKDRTRQLGLTMQYPEGYLEALANKEKSRKRPAKALEQGPSSSKTGKSKQKSTGPTLSSPRASKKSKLEPYTLSEQQANLIKEDKGNAKLWDDVLTSLQDGPYQIFLSKVKEAFQCICCQELVFRPVTTVCQHNVCKDCLDRSFRAQVFSCPACRFELDHSSPTRVNQPLQTILNQLFPGYGSGR

No constants are given. Whether binding was seen depends on the method and setting. In cells and extracts the contact can be indirect. Here binding means that the protein was enriched with, or labelled near, the bait; the list need not be complete.
